Assay results taken from paper PMC8358012.
Results are given in words; binding and its absence hold for the method and conditions named. In cells and extracts the contact can be indirect. Some binding calls cover weakened binding; strength is not graded here.

By UniProt entry, the sequences of proteins in these tests, tags left out.
UniProt P10417: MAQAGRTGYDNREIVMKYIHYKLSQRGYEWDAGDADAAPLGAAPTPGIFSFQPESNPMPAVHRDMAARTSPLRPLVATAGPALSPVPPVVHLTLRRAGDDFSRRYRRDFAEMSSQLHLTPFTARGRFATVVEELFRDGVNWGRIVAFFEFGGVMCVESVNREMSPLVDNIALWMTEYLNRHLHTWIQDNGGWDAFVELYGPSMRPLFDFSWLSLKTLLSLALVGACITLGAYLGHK

T1: Bim (mouse (endogenous in FL-P and FL-D cells)), O54918
T1 chain: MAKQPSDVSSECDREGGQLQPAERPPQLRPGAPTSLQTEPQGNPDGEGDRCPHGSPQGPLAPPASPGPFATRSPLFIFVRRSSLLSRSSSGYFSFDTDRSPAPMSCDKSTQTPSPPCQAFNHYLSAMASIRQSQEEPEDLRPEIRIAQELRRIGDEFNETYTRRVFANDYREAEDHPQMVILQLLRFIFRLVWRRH


How the values were obtained:
[1] = target: Bim (mouse (endogenous in FL-P and FL-D cells)) (UniProt O54918); assay: co-IP; wt FL-P cells (mouse LMPP), treated 4 h with DMSO, 1 µM ABT-737 or 3 µM S63845 plus 20 µM z-VAD-fmk; lysis in 20 mM Tris-HCl, 150 mM NaCl, 10% glycerol, 1% Triton X-100; endogenous Bim precipitated with anti-Bim antibody and agarose G beads, 4 h at 4 °C; western blot of the eluate
[2] = target: Bim (mouse (endogenous in FL-P and FL-D cells)) (UniProt O54918); assay: co-IP; FL-D cells (differentiated 14 d to early B cells), treated with DMSO, 1 µM ABT-737 or 3 µM S63845 in the presence of 20 µM z-VAD-fmk; lysis in 20 mM Tris-HCl, 150 mM NaCl, 10% glycerol, 1% Triton X-100; endogenous Bim precipitated with anti-Bim antibody (isotype control antibody alongside) and agarose G beads, 4 h at 4 °C; western blot of the eluate
[3] = target: T1, Bim (mouse (endogenous in FL-P and FL-D …)); assay: co-IP; wt FL-P cells (mouse LMPP), treated 4 h with DMSO, 1 µM ABT-737 or 3 µM S63845 plus 20 µM z-VAD-fmk; lysis in 20 mM Tris-HCl, 150 mM NaCl, 10% glycerol, 1% Triton X-100; endogenous Bim precipitated with anti-Bim antibody and agarose G beads, 4 h at 4 °C; western blot of the eluate; settings: remark: other sources report otherwise
[4] = target: T1, Bim (mouse (endogenous in FL-P and FL-D …)); assay: co-IP; FL-D cells (differentiated 14 d to early B cells), treated with DMSO, 1 µM ABT-737 or 3 µM S63845 in the presence of 20 µM z-VAD-fmk; lysis in 20 mM Tris-HCl, 150 mM NaCl, 10% glycerol, 1% Triton X-100; endogenous Bim precipitated with anti-Bim antibody (isotype control antibody alongside) and agarose G beads, 4 h at 4 °C; western blot of the eluate; settings: remark: other sources report otherwise

binding [1] | binding [2] | binding [3] | binding [4] | Molecule
binds | binds | – | – | Bcl-2 (from UniProt P10417 1-236)
– | – | binds | binds | Mcl-1, P97287 1-331 (protein) MFGLRRNAVIGLNLYCGGASLGAGGGSPAGARLVAEEAKARREGGGEAALLPGARVVARPPPVGAEDPDVTASAERRLHKSPGLLAVPPEEMAASAAAAIVSPEEELDGCEPEAIGKRPAVLPLLERVSEAAKSSGADGSLPSTPPPPEEEEDDLYRQSLEIISRYLREQATGSKDSKPLGEAGAAGRRALETLRRVGDGVQRNHETAFQGMLRKLDIKNEGDVKSFSRVMVHVFKDGVTNWGRIVTLISFGAFVAKHLKSVNQESFIEPLAETITDVLVRTKRDWLVKQRGWDGFVEFFHVQDLEGGIRNVLLAFAGVAGVGAGLAYLIR
– | – | binds | binds | Bcl-XL, Q64373-1 1-233 (protein) MSQSNRELVVDFLSYKLSQKGYSWSQFSDVEENRTEAPEETEAERETPSAINGNPSWHLADSPAVNGATGHSSSLDAREVIPMAAVKQALREAGDEFELRYRRAFSDLTSQLHITPGTAYQSFEQVVNELFRDGVNWGRIVAFFSFGGALCVESVDKEMQVLVSRIASWMATYLNDHLEPWIQENGGWDTFVDLYGNNAAAESRKGQERFNRWFLTGMTVAGVVLLGSLFSRK
